The record followed here is publication PMC4741653.

Protein sequences, listed by entry. Tags and fused reporters are not part of them.
UniProt Q15022: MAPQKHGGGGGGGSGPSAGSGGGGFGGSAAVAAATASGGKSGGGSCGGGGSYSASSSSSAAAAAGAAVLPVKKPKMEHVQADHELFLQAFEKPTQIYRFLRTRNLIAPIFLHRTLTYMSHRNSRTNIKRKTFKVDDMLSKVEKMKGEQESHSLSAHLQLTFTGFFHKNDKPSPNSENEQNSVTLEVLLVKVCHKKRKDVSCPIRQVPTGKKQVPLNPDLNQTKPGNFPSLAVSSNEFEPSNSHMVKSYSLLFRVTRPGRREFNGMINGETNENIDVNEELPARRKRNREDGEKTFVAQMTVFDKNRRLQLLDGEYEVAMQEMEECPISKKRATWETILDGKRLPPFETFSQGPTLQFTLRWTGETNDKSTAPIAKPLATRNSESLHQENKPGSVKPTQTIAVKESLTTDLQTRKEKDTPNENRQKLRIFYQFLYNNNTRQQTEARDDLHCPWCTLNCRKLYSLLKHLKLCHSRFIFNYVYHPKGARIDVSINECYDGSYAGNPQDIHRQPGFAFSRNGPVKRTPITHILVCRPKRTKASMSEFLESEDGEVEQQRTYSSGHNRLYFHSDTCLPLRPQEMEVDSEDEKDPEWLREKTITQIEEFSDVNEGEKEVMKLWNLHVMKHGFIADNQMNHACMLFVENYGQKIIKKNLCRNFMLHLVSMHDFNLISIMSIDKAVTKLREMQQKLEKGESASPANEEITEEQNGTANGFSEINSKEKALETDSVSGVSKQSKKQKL
UniProt P45973: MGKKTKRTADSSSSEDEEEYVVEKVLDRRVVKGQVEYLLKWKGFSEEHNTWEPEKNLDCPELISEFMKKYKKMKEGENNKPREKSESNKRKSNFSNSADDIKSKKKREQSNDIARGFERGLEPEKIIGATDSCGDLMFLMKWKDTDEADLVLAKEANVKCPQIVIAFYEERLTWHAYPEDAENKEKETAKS

The target of experiment [1] is T1, SUV39H1 (human (endogenous in Hep3B)) (UniProt O43463).
T1 sequence: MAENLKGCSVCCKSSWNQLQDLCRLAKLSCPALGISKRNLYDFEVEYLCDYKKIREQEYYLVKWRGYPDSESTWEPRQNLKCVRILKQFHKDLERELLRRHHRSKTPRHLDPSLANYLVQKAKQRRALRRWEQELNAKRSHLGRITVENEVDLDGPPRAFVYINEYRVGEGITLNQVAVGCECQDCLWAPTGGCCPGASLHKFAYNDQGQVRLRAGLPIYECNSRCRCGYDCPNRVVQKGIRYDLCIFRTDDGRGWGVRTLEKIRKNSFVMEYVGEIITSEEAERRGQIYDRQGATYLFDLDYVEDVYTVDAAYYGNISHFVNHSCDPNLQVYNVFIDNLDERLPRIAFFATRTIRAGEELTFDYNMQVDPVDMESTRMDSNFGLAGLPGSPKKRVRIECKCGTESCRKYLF
The experiment in a line: co-IP; Hep3B lysates in RIRP lysis buffer; 2 μg antibody (anti-SUV39h1, anti-H3K27Ac or anti-SUZ12) for 4 hours at 4°C, protein G/A-plus agarose beads overnight at 4°C; washes in 50 mM TrisCl pH 7.6, 150 mM NaCl, 0.1% NP-40, 1 mM EDTA; Western blot of the precipitate; IgG IP as negative control; cells transfected with pCMV-miR, pCMV-miR675, pCMV-miR675 plus pcDNA3.1-HP1α, pGFP-V-RS or pGFP-V-RS-miR675. A general note: In western blotting, separated proteins are transferred to a membrane and probed.

The target in experiment [2] is SUZ12 (human (endogenous in Hep3B)) (UniProt Q15022). The description is as above.

Results are given in words; binding and its absence hold for the method and conditions named. In cells and extracts the contact can be indirect. Some results given as binding are weak or reduced against the parent protein; the word gives no strength.

On to “heterochromatin protein 1 isoform HP1α (from UniProt P45973 1-191)”, for which the binding entry in experiment [1] and in experiment [2] was “binds” throughout.
